The target in assay [1] is FLAG tagged SIK3 (UniProt Q6P4S6). Kind of assay: co-IP.
Assay [2] has as its target SIK3 (salt inducible kinase 3), endogenous, WT mouse brain (mouse (endogenous in mouse brain)) (UniProt Q6P4S6). Put plainly: co-IP.

By UniProt entry, the sequences of proteins in these tests, tags left out.
UniProt Q6P4S6: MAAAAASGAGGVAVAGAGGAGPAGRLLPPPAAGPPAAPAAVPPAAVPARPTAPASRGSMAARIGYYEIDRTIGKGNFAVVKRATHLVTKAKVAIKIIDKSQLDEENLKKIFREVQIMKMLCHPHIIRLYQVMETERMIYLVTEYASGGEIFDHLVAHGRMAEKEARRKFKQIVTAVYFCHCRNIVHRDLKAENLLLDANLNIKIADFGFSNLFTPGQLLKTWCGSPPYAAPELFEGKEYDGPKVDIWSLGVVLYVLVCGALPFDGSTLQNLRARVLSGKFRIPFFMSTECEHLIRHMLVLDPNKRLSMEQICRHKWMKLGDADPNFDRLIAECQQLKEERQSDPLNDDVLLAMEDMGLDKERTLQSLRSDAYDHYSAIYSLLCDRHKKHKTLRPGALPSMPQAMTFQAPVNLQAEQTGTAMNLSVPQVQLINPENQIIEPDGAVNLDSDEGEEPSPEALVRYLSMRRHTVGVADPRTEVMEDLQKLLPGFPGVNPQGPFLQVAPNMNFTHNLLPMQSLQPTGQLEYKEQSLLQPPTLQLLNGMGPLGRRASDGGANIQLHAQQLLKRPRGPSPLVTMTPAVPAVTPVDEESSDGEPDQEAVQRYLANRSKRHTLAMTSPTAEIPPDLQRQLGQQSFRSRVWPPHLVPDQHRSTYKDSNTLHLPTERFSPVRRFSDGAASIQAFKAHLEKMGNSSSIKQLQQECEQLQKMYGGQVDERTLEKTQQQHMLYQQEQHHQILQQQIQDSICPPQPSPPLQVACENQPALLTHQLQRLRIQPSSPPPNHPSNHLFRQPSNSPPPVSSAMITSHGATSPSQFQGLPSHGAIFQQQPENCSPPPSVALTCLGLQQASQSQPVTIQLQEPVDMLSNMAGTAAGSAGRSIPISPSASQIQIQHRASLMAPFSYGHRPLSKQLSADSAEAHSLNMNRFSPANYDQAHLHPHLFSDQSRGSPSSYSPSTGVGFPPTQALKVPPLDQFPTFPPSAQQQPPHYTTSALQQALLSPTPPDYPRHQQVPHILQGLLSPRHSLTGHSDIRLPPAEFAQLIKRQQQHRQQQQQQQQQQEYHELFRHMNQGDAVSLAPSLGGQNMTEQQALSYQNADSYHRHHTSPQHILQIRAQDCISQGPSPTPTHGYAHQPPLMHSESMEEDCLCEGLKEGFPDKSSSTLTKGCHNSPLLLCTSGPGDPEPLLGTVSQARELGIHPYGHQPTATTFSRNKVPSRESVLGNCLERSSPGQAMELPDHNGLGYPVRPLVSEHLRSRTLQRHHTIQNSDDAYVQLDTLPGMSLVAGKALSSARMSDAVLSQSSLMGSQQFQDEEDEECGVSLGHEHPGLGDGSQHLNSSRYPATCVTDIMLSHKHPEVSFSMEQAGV

No constants are given. Whether binding was seen depends on the method and setting. Binding seen in cells or lysates may run through a third protein. Some entries that bind do so weakly or less than the wild type.

Consider “HA tagged PPP3CA (from UniProt P63328 1-521) (enzyme)”, for which the binding entry in assay [1] was “binds”.

Consider “PPP3CA, catalytic subunit of calcineurin (endogenous, mouse brain) (from UniProt P63328 1-521) (enzyme)”, for which, in assay [2], the binding entry is “binds”.

The values are drawn from article doi:10.1101/2023.06.19.545643.
